Assay results: patent publication US20030148444A1
Results are given in words; binding and its absence hold for the method and conditions named. Some results given as binding are weak or reduced against the parent protein; the word gives no strength.

By UniProt entry, the sequences of proteins in these tests, tags left out.
UniProt P10852: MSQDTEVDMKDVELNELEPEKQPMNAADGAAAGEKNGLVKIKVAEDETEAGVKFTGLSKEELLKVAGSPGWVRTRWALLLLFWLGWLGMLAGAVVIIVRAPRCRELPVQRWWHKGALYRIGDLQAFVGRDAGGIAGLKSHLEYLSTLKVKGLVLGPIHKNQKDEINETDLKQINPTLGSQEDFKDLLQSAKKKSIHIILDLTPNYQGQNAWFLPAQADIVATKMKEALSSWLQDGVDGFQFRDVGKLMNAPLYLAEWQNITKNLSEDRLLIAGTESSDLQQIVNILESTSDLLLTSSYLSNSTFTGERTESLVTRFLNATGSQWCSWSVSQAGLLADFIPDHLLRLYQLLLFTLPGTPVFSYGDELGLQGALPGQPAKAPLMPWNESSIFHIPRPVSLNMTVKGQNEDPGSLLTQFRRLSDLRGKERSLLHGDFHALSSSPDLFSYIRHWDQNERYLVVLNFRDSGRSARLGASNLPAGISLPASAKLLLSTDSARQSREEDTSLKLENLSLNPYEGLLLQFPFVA

Target: 4F2hc of mouse (mouse) (UniProt P10852)
Experiment: western blot of mouse cerebral membrane fraction; 118 kDa complex under non-reducing condition resolved by 2-mercaptoethanol

B1: sodium-independent small neutral amino acid transporter asc-1 of mouse (protein)
chain: MRRDSDMASHIQQPGGHGNPGPAPSPSPGPGPGPGASERVALKKEIGLVSACTIIIGNIIGSGIFISPKGVLEHSGSVGLALFVWVLGGGVTALGSLCYAELGVAIPKSGGDYAYVTEIFGGLAGFLLLWSAVLIMYPTSLAVISMTFSNYVLQPVFPNCIPPATASRVLSMACLMLLTWVNSSSVRWATRIQVIFTGGKLLALSLIITVGFVQIFQGHFEELRPTNAFAFWMTPSVGHLALAFLQGSFAFSGWNFLNYVTEELVDPRKNLPRAIFISIPLVTFVYTFTNVAYFTAMSPQELLSSNAVAVTFGEKLLGYFSWVMPVSVALSTFGGINGYLFTSSRLCFSGAREGHLPSFLAMIHVRRCTPIPALLVCCGATAVIMLVGDTYTLINYVSFINYLCYGVTILGLLVLRWRRPALHRPIKVNLLVPVVYLVFWAFLLVFSFISEPMVCGVGIIIILTGVPIFFLGVFWRSKPKCVHRFTESMTRWGQELCFVVYPQGSLEEEENGPMGQPSPLPITDKPLKTQ
B1 was tested, and the binding was “binds”.
